Drawing on patent US20200277268A1, “PENTAFLUOROPHENYL SULFONAMIDE COMPOUNDS, COMPOSITIONS AND USES THEREOF” (DALRIADA THERAPEUTICS INC., priority 2017, published 2020), this text covers IC50 for one compound.

What all share (type): cell-based
In one assay the test system is A-172. The assay is described as follows: Cell viability, glioblastoma A-172. The following applies: Homo sapiens, glioblastoma cell line. Here is the method:
(§1) The anti-cancer efficacy of exemplary compounds of the application were assessed in vitro against different cancer cell lines. Cell viability was examined following treatment at various concentrations of inhibitor (0.097656-50 μM) using a CellTiter-Blue® cell viability assay. 1×10^4 cells/well were plated in 96-well assay plates in culture medium. All cells were grown in DMEM, IMDM and RPMI-1640 supplemented with 10% fetal bovine serum (FBS). In some instances, FBS was removed for periods ranging from 16-24 hours, and re-introduced with test compound addition. After 24 hrs, test compounds and vehicle controls were added to appropriate wells such that the final volume was 100 μl in each well. The cells were cultured for the desired test exposure period (72 hours) at 37° C. and 5% CO2. The assay plates were removed from […] incubator and 20 μl/well of CellTiter-Blue® Reagent was added. The plates were incubated using standard cell culture conditions for 1-4 hours. Afterwards, the plates were shaken for 10 seconds and florescence was recorded at 560/590 nm using a Cytation 3 spectrophotometer. IC50 values were determined using non-linear regression analysis with GraphPad Prism 6.0 (GraphPad Software Inc.). […]

The subject of another assay is U87MG. The assay is described as follows: Cell viability, glioblastoma U87MG. The following applies: Homo sapiens, U-87 MG; glioblastoma cell line. Here is the method: as §1
A further assay has as its system U118MG. The assay is described as follows: Cell viability, glioblastoma U118MG. The following applies: Homo sapiens, U-118-MG; glioblastoma cell line. As for the experimental part:
as §1

Each structure is given as a SMILES string.

The IC50 is the concentration needed to halve the response being measured. For the compound `CC/C(=C(\c1ccccc1)c1ccc(OCCN(C)C)cc1)c1ccccc1` [Tamoxifen, reference compound], the half-maximal inhibitory concentration (IC50) in the assay on A-172 was 16.2 µM; with U87MG, 15.1 µM; in the assay on U118MG, 14 µM.
